Laboratory results reported in PubChem BioAssay AID2685 (National Center for Advancing Translational Sciences (NCATS), 2010).
This is one part of the list. The main result of the screen is listed elsewhere. These columns were measured beside it and carry no call. Most of these compounds were active or inconclusive in the main read-out, so they are no random draw. Words in brackets tell the shape of the fitted curve; partial curves, single points and poor fits give uncertain potencies.

Test: qHTS Assay for Lipid Storage Modulators in Drosophila S3 Cells;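 for cell number change: cells counted by Cell Tracker Red CMTPX staining in the red channel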
Details: BODIPY lipid droplet fluorescence, 18-24 h; for cell number change: measured here: cell count max response, cells fed with added oleic acid
Method in brief: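 Drosophila S3 cells got compounds at several concentrations plus oleic acid (400 uM solution). Laser-scanning cytometry with 488 nm excitation read lipid droplets at 500-530 nm and cells at 575-640 nm. Percent activity was relative to 20 uM Triacsin C.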

[1] = measured here: cell number channel AC50, cells fed with added oleic acid
[2] = measured here: lipid fluorescence (Fed channel) AC50, cells fed with added oleic acid

Row | Compound | cell number change | AC50 [1] | AC50 [2]
1 | O=S(=O)(c1cccc2cccc(Cl)c12)N1CCCC1 | 104% |  | 
2 | CCc1ccc(-c2nnn(CC(=O)N(C3CCCC3)C3CCS(=O)(=O)C3)n2)cc1 (configuration not stated) | 44.2% | 32.6 µM [rising, single point] | 13 µM [rising, partial curve]
3 | CSCCC(NC(=O)c1ccco1)C(=O)N1CCN(C(c2ccccc2)c2ccccc2)CC1 (configuration not stated) | 97% | 11.6 µM [rising, partial curve] | 
4 | COc1cc(C2C=C(C34CC5CC(CC(C5)C3)C4)NC(=S)N2)cc(OC)c1OC (configuration not stated) |  | 1.64 µM [falling, single point] | 
5 | CCOc1ccc(NC(=O)CN(C)C(=O)Cc2c(C)nc3ccccc3c2C)cc1OCC | -1.28% |  | 0.411 µM [rising, partial curve, poor fit]
6 | C=C(C)Cn1c(N2CCC(Cc3ccccc3)CC2)nc2c1c(=O)[nH]c(=O)n2C | -31.1% | 29.1 µM [falling, single point] | 29.1 µM [falling, single point]
7 | C=CCN(CC=C)S(=O)(=O)c1ccc(C(=O)Nc2sc3c(c2C(N)=O)CCCCC3)cc1 | -23.2% |  | 20.6 µM [falling, single point]
8 | CCOc1ncccc1C(=O)N(CC)CC(=O)NCc1ccc(Cl)cc1 | 25.2% |  | 0.13 µM [falling, full curve, poor fit]
9 | O=C(Nc1cccnc1N1CCOCC1)c1cc2ccccc2oc1=O | -10.4% |  | 6.51 µM [rising, partial curve, poor fit]
10 | CCOC(=O)N=Nc1c(O)n(CC)c2ccccc12 | -17% |  | 29.1 µM [rising, single point]
11 | Cn1cc(C(=O)NS(=O)(=O)Nc2ccc(Br)cc2)c2ccccc21 | -19.8% |  | 18.4 µM [rising, partial curve]
12 | NC(=O)Nc1ccccc1C(=O)Nc1ccc2ccccc2c1 | 2.64% |  | 
13 | O=C(Nc1ccc(-c2csc(Nc3cccc(C(F)(F)F)c3)n2)cc1)c1cccc(C(F)(F)F)c1 | -31.4% | 16.4 µM [falling, single point] | 29.1 µM [falling, single point]
14 | Cn1nnnc1Sc1ccc([N+](=O)[O-])cc1Cl | -22.7% |  | 
15 | CCCC(NCC(O)COc1ccc(-c2ccccc2)cc1)c1ccccc1 (configuration not stated) | -44% | 32.6 µM [falling, single point] | 29.1 µM [falling, single point]
16 | Cc1ccc(C)c(NC(=S)NNC(=O)c2csc(C)c2C)c1 | -63.2% | 29.1 µM [falling, single point] | 2.91 µM [rising, single point]
17 | CC(=O)Nc1cccc(NC(=O)CSc2nnc(NC(=O)C3CC3)s2)c1 | 4.74% |  | 0.00461 µM [falling, full curve, poor fit]
18 | CCCN(CC(=O)Nc1ccccc1OC)C(=O)c1cc(-c2cccs2)nn1-c1ccccc1 | 35.5% | 0.461 µM [rising, full curve] | 0.651 µM [rising, full curve]
19 | Cc1ccccc1CC(=O)N1CCCC(CCC(=O)N2CCN(c3ccccn3)CC2)C1 (configuration not stated) | -28.7% |  | 14.6 µM [falling, partial curve]
20 | COC(=O)c1c(C)[nH]c(C)c1-c1ccc(C)cc1 | 26.6% | 1.84 µM [rising, partial curve, poor fit] | 2.91 µM [rising, partial curve]

Row | Compound | cell number change | AC50 [1] | AC50 [2]
21 | NNC(=O)c1cncc(Br)c1 | 5.12% |  | 
22 | COc1cccc(COC(=O)C2CC(=O)N(Cc3ccc(C)cc3)C2)c1OC (configuration not stated) | 1.5% |  | 
23 | O=C(Nc1cccc(F)c1)C1CCCN(S(=O)(=O)c2ccc(-n3cnnn3)cc2)C1 (configuration not stated) | 11.5% |  | 6.51 µM [rising, single point]
24 | COc1ccccc1NC(=O)CSC1=NC(=O)C(Cc2ccccc2)C(=O)N1 (configuration not stated) | -2.63% |  | 5.62 µM [rising, single point]
25 | COc1ccc(C2=NS(=O)(=O)N(C)C(C(=O)NCc3ccc(F)cc3)=C2)cc1OC | 10.2% | 0.291 µM [rising, full curve, poor fit] | 0.0651 µM [rising, full curve, poor fit]
26 | COc1ccc(CN(C)C(=O)CNC(=O)CNC(=O)c2ccc(Cl)cc2Cl)cc1F | -16.7% |  | 0.58 µM [rising, single point]
27 | CCOc1ccccc1C(=O)N/N=C/c1coc2ccc(C)cc2c1=O |  |  | 16.4 µM [falling, partial curve]
28 | Cc1ccc2occ(/C=N/NC(=O)c3ccncc3)c(=O)c2c1 | 3.66% |  | 
29 | O=C(CSc1nnc(-c2cccc(S(=O)(=O)N3CCCCC3)c2)o1)c1ccc[nH]1 | -31.6% | 1.16 µM [falling, full curve, poor fit] | 0.58 µM [rising, single point]
30 | Cc1ccc(C2C(C(=O)c3cccs3)=C(O)C(=O)N2c2cccc(C)n2)cc1 (configuration not stated) | 15.9% |  | 1.46 µM [rising, partial curve, poor fit]
31 | Cc1cc(N2CCOCC2)ccc1/C=C1\NC(=O)N(CC(=O)Nc2ccc(F)cc2)C1=O | -13.8% |  | 18.4 µM [falling, single point]
32 | O=C(OCc1nnc(-c2ccccc2)o1)c1cc(Cl)ccc1[N+](=O)[O-] |  |  | 29.1 µM [rising, single point]
33 | COc1ccc(C(=O)Cc2cc3cccc(OC)c3oc2=O)cc1 | 25.9% |  | 29.1 µM [rising, single point]
34 | Cc1ccc(/C=C/C(=O)OC(C)C(=O)Nc2ncc(Cl)cc2Cl)o1 (configuration not stated) | 45.5% | 29.1 µM [rising, single point] | 20.6 µM [rising, single point]
35 | CCOC(=O)C1C(=O)NC(N2CCc3ccccc32)=NC1c1ccccc1 (configuration not stated) | -26.9% |  | 
36 | Cc1ccc(SCC(=O)OCC(=O)NCc2cccs2)cc1 | -6.81% |  | 6.51 µM [rising, single point]
37 | O=C(Nc1ccc(Cl)c(S(=O)(=O)N2CCOCC2)c1)c1cn2ccccc2n1 | 1.97% |  | 
38 | C=CCOc1cccc(C(=O)N2CCCC(CCC(=O)NCc3ccccc3F)C2)c1 (configuration not stated) | -43.2% | 32.6 µM [falling, single point] | 23.1 µM [falling, partial curve]
39 | CCCOC(=O)c1ccc(Oc2c(-c3ccc(OCC)cc3O)n[nH]c2C)cc1 | -91.2% | 23.1 µM [falling, partial curve] | 18.4 µM [falling, single point]
40 | Cc1cccc(NC(=O)c2cccc(C(F)(F)F)c2)c1 | 14.3% |  | 

Row | Compound | cell number change | AC50 [1] | AC50 [2]
41 | Cc1cccc(-c2nnc(SCC(=O)Nc3nc4c(s3)CCCC4)n2C)c1 | -17.7% |  | 20.6 µM [falling, partial curve]
42 | Cc1ccc(NC(=O)CC(C(=O)O)c2ccccc2)cc1 (configuration not stated) |  | 0.82 µM [falling, single point] | 
43 | CC(OC(=O)CNC(=O)c1cccc(F)c1)C(=O)NC1CCCCC1C (configuration not stated) | -42.1% | 32.6 µM [falling, partial curve] | 
44 | O=C(Nc1ccc(F)c(F)c1)C1CCCN(S(=O)(=O)c2cnc[nH]2)C1 (configuration not stated) | -9.88% |  | 32.6 µM [falling, single point]
45 | COCCn1c(SCC(=O)Nc2ncc(Cl)c(C)c2Cl)nc2ccccc21 | 33.3% | 6.51 µM [rising, full curve, poor fit] | 0.731 µM [rising, full curve, poor fit]
46 | Cc1cccc(OCc2nnc(SCC(=O)N3CCc4ccccc43)n2C)c1 | -18.5% |  | 29.1 µM [falling, single point]
47 | O=C(Nc1ccc(Cl)cc1C(=O)O)c1ccc2c(c1)C(=O)N(Cc1ccco1)C2=O | -23.3% |  | 0.00461 µM [falling, full curve, poor fit]
48 | O=C(CNC(=O)c1ccccc1F)N/N=C/c1ccco1 | 20.6% |  | 25.9 µM [rising, single point]
49 | COc1ccc2c(c1)c(CC(=O)Nc1cc(C)ccc1C)c(C)n2C(=O)c1ccc(Cl)cc1 | 18.4% |  | 0.58 µM [rising, full curve]
50 | Cc1cccc(OCC(=O)NN2C(=O)C3C4C=CC(O4)C3C2=O)c1 (configuration not stated) | -4.23% |  | 32.6 µM [falling, single point]
51 | O=C(NCc1ccc(Cl)cc1)N1CCN(Cc2ccccc2)CC1 | -17.2% |  | 23.1 µM [falling, single point]
52 | CSc1ccc(/C=N/N2CCN(Cc3ccc(C)cc3C)CC2)cc1 | -45% | 29.1 µM [falling, single point] | 29.1 µM [falling, single point]
53 | Cc1ccc([N+](=O)[O-])cc1S(=O)(=O)N1CCN(C)CC1 | -1.27% | 3.26 µM [falling, single point] | 
54 | CC1=NNC(=O)C(CC(=O)Nc2ccc(Cl)c(Cl)c2)C1 (configuration not stated) | 2.81% | 0.651 µM [rising, partial curve, poor fit] | 
55 | CCCN(CC1CC1)C(=O)CSc1ncnc2sccc12 | 7.57% |  | 
56 | CN1C(=O)c2ccccc2N(C)C1c1cccs1 (configuration not stated) | 2.71% |  | 
57 | Cc1cc(NC(=O)c2cccs2)n(-c2nc3ccccc3[nH]2)n1 | -14.6% |  | 
58 | CCOc1ccc(NC(=O)C(CC(=O)O)Cc2ccccc2)cc1 (configuration not stated) | -31.2% | 20.6 µM [falling, single point] | 25.9 µM [falling, single point]
59 | O=C(Nc1cccc(-n2cccn2)c1)C1CCCN(Cc2ccc(C#CCCO)cc2)C1 (configuration not stated) | 24.6% |  | 4.61 µM [rising, single point]

Exported as labelled records: two of the compounds above.
Cn1nnnc1Sc1ccc([N+](=O)[O-])cc1Cl
  cell number change: -22.7%
Cc1cc(N2CCOCC2)ccc1/C=C1\NC(=O)N(CC(=O)Nc2ccc(F)cc2)C1=O
  cell number change: -13.8%; AC50 [2]: 18.4 µM [falling, single point]
